Source: publication PMC3387162

T1: Venus-GABAA receptor α1 subunit fusion (inhibitory synapse affinity tag), P62812
T1 chain: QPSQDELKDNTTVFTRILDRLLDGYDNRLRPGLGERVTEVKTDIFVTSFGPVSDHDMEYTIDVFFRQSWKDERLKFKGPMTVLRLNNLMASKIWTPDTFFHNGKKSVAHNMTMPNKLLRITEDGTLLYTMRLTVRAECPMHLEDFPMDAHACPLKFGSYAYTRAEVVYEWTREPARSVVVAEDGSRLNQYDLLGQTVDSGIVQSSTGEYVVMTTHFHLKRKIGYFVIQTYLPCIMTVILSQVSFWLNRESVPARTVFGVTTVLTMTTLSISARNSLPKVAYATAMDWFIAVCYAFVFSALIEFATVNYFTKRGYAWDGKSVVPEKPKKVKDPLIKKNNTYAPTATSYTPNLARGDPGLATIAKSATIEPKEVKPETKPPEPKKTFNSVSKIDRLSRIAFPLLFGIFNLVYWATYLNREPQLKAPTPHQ

B1: Gephyrin, Q8BUV3 1-769 (protein)
chain: MATEGMILTNHDHQIRVGVLTVSDSCFRNLAEDRSGINLKDLVQDPSLLGGTISAYKIVPDEIEEIKETLIDWCDEKELNLILTTGGTGFAPRDVTPEATKEVIEREAPGMALAMLMGSLNVTPLGMLSRPVCGIRGKTLIINLPGSKKGSQECFQFILPALPHAIDLLRDAIVKVKEVHDELEDLPSPPPPLSPPPTTSPHKQTEDKGVQCEEEEEEKKDSGVASTEDSSSSHITAAALAAKIPDSIISRGVQVLPRDTASLSTTPSESPRAQATSRLSTASCPTPKQIRRPDESKGVASRVGSLKARLPSCSSTYSVSEVQSRCSSKENILRASHSAVDITKVARRHRMSPFPLTSMDKAFITVLEMTPVLGTEIINYRDGMGRVLAQDVYAKDNLPPFPASVKDGYAVRAADGPGDRFIIGESQAGEQPTQTVMPGQVMRVTTGAPIPCGADAVVQVEDTELIRESDDGTEELEVRILVQARPGQDIRPIGHDIKRGECVLAKGTHMGPSEIGLLATVGVTEVEVNKFPVVAVMSTGNELLNPEDDLLPGKIRDSNRSTLLATIQEHGYPTINLGIVGDNPDDLLNALNEGISRADVIITSGGVSMGEKDYLKQVLDIDLHAQIHFGRVFMKPGLPTTFATLDIDGVRKIIFALPGNPVSAVVTCNLFVVPALRKMQGILDPRPTIIKARLSCDVKLDPRPEYHRCILTWHHQEPLPWAQSTGNQMSSRLMSMRSANGLLMLPPKTEQYVELHKGEVVDVMVIGRL
B2: GABAA receptor α4 subunit, Q9D6F4 36-552 (receptor)
chain: QNSKDEKLCPENFTRILDSLLDGYDNRLRPGFGGPVTEVKTDIYVTSFGPVSDVEMEYTMDVFFRQTWIDKRLKYDGPIEILRLNNMMVTKVWTPDTFFRNGKKSVSHNMTAPNKLFRIMRNGTILYTMRLTISAECPMRLVDFPMDGHACPLKFGSYAYPKSEMIYTWTKGPEKSVEVPKESSSLVQYDLIGQTVSSETIKSITGEYIVMTVYFHLRRKMGYFMIQTYIPCIMTVILSQVSFWINKESVPARTVFGITTVLTMTTLSISARHSLPKVSYATAMDWFIAVCFAFVFSALIEFAAVNYFTNIQMQKAKKKISKPPPEVPAAPVLKEKHTETSLQNTHANLNMRKRTNALVHSESDVKSRTEVGNHSSKTSAVQESSEATPKAHLASSPNPFSRANAAETMSAAARGLSSAASPSPHGTLRPASLGSASTRPAFGSRLGRIKTTVNTTGAAGNVSATPPPPAPPPSGSGTSKIDKYARILFPVTFGAFNMVYWVVYLSKDTMEKSESLM
B3: lipoma HMGIC fusion partner-like 4 (protein, UniProt Q5U4E0 1-247)
chain: MLPSQEASKLYHEHYMRNSRAIGVLWAIFTICFAIINVVVFIQPYWVGDSVSTPKPGYFGLFHYCVGSGLAGRELTCRGSFTDFSTIPSSAFKAAAFFVLLSMVLILGCITCFALFFFCNTATVYKICAWMQLLAALCLVLGCMIFPDGWDAETIRDMCGAKTGKYSLGDCSVRWAYILAIIGILNALILSFLAFVLGNRQTDLLQEELKQENKDFVGTTVSSVLRPGGDVSGWGVLPCPVAHTQGP

Key:
[1] = biological target: T1, Venus-GABAA receptor α1 subunit fusion …; test: affinity purification with mass spectrometry; same immunopurification via VGABAARα1 (tagged sample) or eGFP (control sample); FASP II on-membrane digestion, LC-MS/MS on LTQ-Orbitrap XL, X!Tandem search, cutoff E = 10^-4; two replicates; proteins found with eGFP subtracted; settings: remark: other sources report otherwise
[2] = biological target: Venus-GABAA receptor α1 subunit fusion (inhibitory synapse affinity tag) (UniProt P62812); test: as above

Row | Binder | binding [1] | binding [2]
1 | B1 | binds | –
2 | B2 | binds | –
3 | B3 | – | binds

These are yes or no findings as the source states them, for the method shown. Binding seen in cells or lysates may run through a third protein. These calls come from enrichment with a bait or labelling near it, and not all partners need be listed. Sequences can lack the tags named with a protein.
